According to patent US8586579B2, “Anellated pyridine compounds” (Hoffmann-La Roche Inc., priority 2010, dated 2013):

Cc1ccc(C(=O)N[C@H]2CC[C@H](CCN3CCN(c4nccc5c4CCO5)CC3)CC2)cn1 [Example 116, trans-N-(4-{2-[4-(2,3-Dihydro-furo[3,2-c]pyridin-4-yl)-piperazin-1-yl]-ethyl}-cyclohexyl)-6-methyl-nicotinamide]
melting point: 201 °C
